Results reported in US6979545B2, “Method for determining chemical reactivity” (Pharmacia & Upjohn Company, priority 2000, dated 2005).
For at least one compound, name, drawing or mass did not settle the structure.

Assay: GSH reactivity screen (mercury orange fluorescence, 96-well)
Format: physicochemical
Details: test compound with 200 μM GSH, 1 h at room temperature; no metabolic activation, no glutathione transferase
Experimental: The test compounds as listed in Table 2 to be screened are dissolved in dimethyl sulfoxide (DMSO) to a final concentration of 10 mM, and 2 μL is transferred to the wells of a polypropylene 96-well microtiter plate. […] Mercury orange (HgO) stock solution (470 μM) is prepared in acetone and stored at 4° C. […] A 48 μL aliquot of the GSH working solution is pipetted into the 96-well tray containing the test compounds to yield a final concentration of 200 μM GSH. The reaction of the test compound with the GSH is allowed to proceed for 1 h at room temperature after which time an aliquot of HgO is added to each reaction well to yield a final concentration of 50 μM GSH/HgO. […] Assay linearity is investigated by preparing a GSH standard curve in the concentration range 0 to 50 μM (final concentration). Routine sample analysis is achieved using a Biomek 2000 biorobotic system configured with six 96-well plates and 2 reagent reservoirs.
Compounds are then identified as elelctrophiles based upon a predetermined criteria of GSH consumption (e.g., <20% GSH remaining).

## CN1CCN(C2=Nc3cc(Cl)ccc3Nc3ccccc32)CC1 [Cloazapine]
  result in the GSH screen (in words): non-reactive
